# The supplement of paper PMC12067093, “Discovery and optimisation of a covalent ligand for TRIM25 and its application to targeted protein ubiquitination” (Chemical Science, 2025)
# This is one part of the list.
# Compound: Cc1cc(ccc1-c1ccccc1)C(=O)N1CCCN(CC1)C(=O)CCl [compound 10]
# Test: probe-labelled cysteine peptide fold change vs DMSO (competition) (log2 fold change); higher = less target engagement (more negative = stronger competition)
# Conditions: THP-1, incubation time: 4 h
# 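Note: competitive profiling in live THP-1 cells: cysteine peptides tagged with an iodoacetamide desthiobiotin (IA-DTB) probe, intensity after compound treatment relative to DMSO-treated cells.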
Target,probe-labelled cysteine peptide fold change (10 µM),probe-labelled cysteine peptide fold change (50 µM)
CNPY3_Q9BT09_206_DTSCLAEQWSGK (UniProt Q9BT09),-0.165,0.203
CNOT1_A5YKK6_2359_LFQSVAQCCMGQK (UniProt A5YKK6),0.135,-0.247
CNPY2_Q9Y2B0_28+31_SQDLHCGACR (UniProt Q9Y2B0),-0.301,-0.121
COMP_P49747_351_WGDACDNCR (UniProt P49747),-0.495,0.0664
COMMD9_Q9P000_160_IQEDPSLCGDK (UniProt Q9P000),-0.0729,0.278
COMT_P21964_241_GSSCFECTHYQSFLEYR (UniProt P21964),0.0648,-0.0597
CNTN1_Q12860_158_GMVLLCDPPYHFPDDLSYR (UniProt Q12860),-0.0707,-0.277
CNOT9_Q92600_252_QCLPDQLK (UniProt Q92600),0.234,0.0576

# Full records, quoted from the list. Order of values: probe-labelled cysteine peptide fold change (10 µM) | probe-labelled cysteine peptide fold change (50 µM)
# COMP_P49747_351_WGDACDNCR (UniProt P49747) is entered as -0.495 | 0.0664
# CNTN1_Q12860_158_GMVLLCDPPYHFPDDLSYR (UniProt Q12860) is entered as -0.0707 | -0.277
